Percent effect of library compounds

Mtb glucose medium: 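Whole-cell growth test on Mycobacterium tuberculosis, read after 3 days in glucose-containing 7H9 medium; the read-out is not stated. Compounds at 50 µM. Direction is inferred from retests: higher values go with more growth inhibition. Of about 69,000 compounds tested this way, about 760 (1.1%) reached 50% or more in at least one test.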
Mtb cholesterol medium: 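Phenotypic screen: M. tuberculosis growth, cholesterol and DPPC medium, 4 days; the read-out is not stated. Concentration: 50 µM. Higher reads as more growth inhibition (inferred: compounds with an IC50 in retests scored well above the rest). Of about 69,000 compounds tested this way, about 370 (0.54%) reached 50% or more in at least one test.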

Results are given as percent effect. The controls that fix the scale are not given in the record; negative values are as filed. The compounds are a random part of those screened. Two or more numbers in one place are separate tests of the same structure; such repeats can differ widely.

| # | Compound | Mtb glucose medium | Mtb cholesterol medium |
|---|---|---|---|
| 1 | `CC(C)CCNC(=O)c1csc(NC2CC2)n1` | 40.29% | 42.69% |
| 2 | `[H][C@]12CC[C@]([H])(CN(c3nccc(C)n3)C1)N(CCOC)C2=O` | -13.03% | -8.471% & -11.52% |
| 3 | `Cc1nnc(CN2CCN(C)C3(CCC(=O)N(CCO)CC3)C2)s1` (centres unmarked) | 1.882% | 7.938% |
| 4 | `O=C(O)C(F)(F)F.O=C(O)C(F)(F)F.[H][C@@]12OCCN(Cc3scnc3C)[C@@]1([H])CC[C@H]2Oc1ccccn1` | 8.309% & 23.58% | -12.74% |
| 5 | `O=C(CSC1CCc2ccccc2NC1=O)NCCO` (centres unmarked) | -25.52% | -16.11% |
| 6 | `[H][C@]12CC[C@]([H])(CN(C3CCOCC3)C1)N(C(=O)c1csc(C(C)C)n1)C2` | -18.22% | 12.41% & -2.028% |
| 7 | `Cn1ncc2cnn(CC(O)COc3cccc4[nH]ccc34)c2c1=O` (centres unmarked) | -53.98% | -67.62% |
| 8 | `Cc1nc(C2CCCN2C(=O)CCCOc2cccc(F)c2)no1` (centres unmarked) | 18.95% | 3.083% & -42.32% |
| 9 | `NC(=O)c1ccc2c(c1)nc1n2CCN(Cc2ccco2)C1` | -7.711% & 14.47% | 1.856% |
| 10 | `CN(C)Cc1cc(=O)n2c(n1)CN(CC1CC1)CCC2` | -7.082% | -10.45% |
| 11 | `Brc1ccc(CN2CCC(NCc3ncc[nH]3)CC2)cc1` | 45.74% | 19.93% |
| 12 | `COC(=O)[C@@H](NC(=O)c1coc(COc2cccc(F)c2F)n1)C(C)C` | 17.86% | 15.28% |
| 13 | `O=C(Nc1cnn(CC(=O)N2CCCCO2)c1)c1ccsc1` | 5.218% | -5.578% |
| 14 | `CCC(C)N(Cc1ccsc1)C(=O)c1ccc2[nH]nnc2c1` (centres unmarked) | -0.5353% | 11.33% & -22.62% |
| 15 | `Cc1nc(CN2CCCN(C(=O)c3cccn3C)CC2)cs1` | 19.22% & -1.79% | 15.23% |
| 16 | `CC(NCc1nnc2n1CCCC2)c1nc(Cc2ccccc2)no1` (centres unmarked) | -10.86% & 4.061% | -17.28% |
| 17 | `COc1cnc(C2(O)CCN(C(=O)c3cccnc3)CC2)c(OC)n1` | -15.35% | 76.64% |
| 18 | `CC(C)(C)C(O)CN1CCN(Cc2ccc(C#N)cc2)CC1` (centres unmarked) | -5.935% | -0.3468% |
| 19 | `CN(C)CC(=O)N1CCC2(CC1)CN(Cc1ccccc1)C2` | -26.8% | 5.616% |
| 20 | `Cn1cncc1CN1CCC2(CC1)CCN2c1ncccn1` | -8.853% & -3.626% | -17.14% |
| 21 | `COCCN(Cc1ccoc1)C(=O)c1c(F)cccc1F` | 18.94% | 13.42% |
| 22 | `[H][C@]12CCN(C(=O)c3cc(CN(CC)CC)c(CC)o3)C[C@]([H])(CC1)N2` | -9.99% & -8.397% | 16.67% |
| 23 | `Cc1cccc(C(=O)N2CCN(c3ccc(-n4cccc4)nn3)CC2)c1` | 19.69% | 23.16% |
| 24 | `O=C1NCCN1C1CCN(CCc2cccs2)CC1` | 11.9% | -16.07% |
| 25 | `Cc1cc(C)cc(CCC(=O)N(C)CCc2cn[nH]c2)c1` | 26.74% | -20.07% |
| 26 | `CCCn1ncc(C(=O)N2CCC(N3CCCCC3)CC2)c1C` | 7.081% & 25.36% | -2.727% |
| 27 | `CCC(=O)N1CCC1c1cc(NC2CCCC2)nc(C)n1` (centres unmarked) | 6.854% | 1.166% |
| 28 | `COCCOCc1cccc(NC(=O)N2CCCC2c2ccncc2)c1` (centres unmarked) | 1.63% | -2.763% |
| 29 | `COC[C@@H]1CCCN1C(=O)c1cc(-c2ccc(OC)cc2)n[nH]1` | 28.51% | 13.87% |
| 30 | `CCc1cnc(CN2CCC(N(C)Cc3noc(C4CC4)n3)C2)o1` (centres unmarked) | -0.9785% | 0.8999% |
| 31 | `Cl.OC[C@H]1CC[C@]2(CC1)CN(Cc1ccccn1)Cc1ccccc1O2` | -14.78% | -2.451% |
| 32 | `O=C(O)C(F)(F)F.[H][C@@]12CCN(CC(C)C)[C@@]1([H])CCN2S(=O)(=O)c1cccs1` | -13.46% | -3.314% |
| 33 | `[H][C@]12CN(C(=O)CC3CCCC3)CCN1C[C@@H](CO)[C@@H]2c1ccccc1` | -2.568% | -7.671% |
| 34 | `COCC(=O)N1CCC(c2cc(-c3ccc(C)cc3)n[nH]2)C1` (centres unmarked) | 15.47% | -42.64% |
| 35 | `CCc1nc(C2CCCN2CC(=O)Nc2cc(C)on2)no1` (centres unmarked) | -13.66% | 4.008% |
| 36 | `[H][C@]12CC[C@]([H])(CN(C(=O)N(C)C)C1)N(C(=O)Cn1ccnc1CC)C2` | -20.45% | 5.936% |
| 37 | `O=C(Nc1cccnc1-n1cc(Cl)cn1)C1CC1` | 18.7% | -1.181% |
| 38 | `O=C(CC1C=CCC1)Nc1ncn(CC(=O)N2CCCCCC2)n1` (centres unmarked) | -4.504% | 16.4% |
| 39 | `CCO[C@@H]1CO[C@@]2(CCCN(Cc3scnc3C)C2)C1.O=C(O)C(F)(F)F` | 11.56% | 0.6614% |
| 40 | `O=C(O)C(F)(F)F.[H][C@@]12CN(Cc3nccn3C)C[C@@]1([H])N(CC1CCCC1)C(=O)CO2` | -3.232% | -3.522% |
| 41 | `COCCN1CCC1c1cc(N)nc(C)n1` (centres unmarked) | 9.988% | -3.656% |
| 42 | `CCCc1n[nH]c(C2CN(C(=O)CCn3cc(C)cn3)CCO2)n1` (centres unmarked) | -20.06% | -35.69% |

From ChEMBL document CHEMBL3988442, “University of Dundee, Small-Polar-MMV Screening Library” (2021).